Results: the supplement of paper PMC10849652
The list shows a part of the results.

By UniProt entry, the sequences of proteins in these tests, tags left out. Where a name states a change or a piece, a line headed by the entry shows the natural chain unless it says otherwise.
UniProt Q9BTX1: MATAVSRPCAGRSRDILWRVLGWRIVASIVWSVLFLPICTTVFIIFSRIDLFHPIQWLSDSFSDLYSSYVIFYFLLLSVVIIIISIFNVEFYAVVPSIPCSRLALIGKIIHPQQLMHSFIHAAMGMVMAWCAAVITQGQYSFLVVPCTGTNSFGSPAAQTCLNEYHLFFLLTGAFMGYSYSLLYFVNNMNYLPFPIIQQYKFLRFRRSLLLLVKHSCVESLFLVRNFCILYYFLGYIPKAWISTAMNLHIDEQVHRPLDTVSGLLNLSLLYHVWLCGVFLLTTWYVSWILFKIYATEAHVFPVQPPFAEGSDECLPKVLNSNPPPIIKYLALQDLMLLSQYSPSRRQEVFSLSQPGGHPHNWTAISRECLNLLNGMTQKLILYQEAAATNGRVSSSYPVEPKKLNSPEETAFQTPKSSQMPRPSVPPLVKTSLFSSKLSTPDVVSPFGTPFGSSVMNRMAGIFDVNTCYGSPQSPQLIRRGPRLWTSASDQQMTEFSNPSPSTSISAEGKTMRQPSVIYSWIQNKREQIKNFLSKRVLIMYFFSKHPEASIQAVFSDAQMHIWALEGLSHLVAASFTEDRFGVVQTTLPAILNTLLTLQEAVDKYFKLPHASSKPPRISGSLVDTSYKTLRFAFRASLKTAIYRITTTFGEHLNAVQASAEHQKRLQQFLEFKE
UniProt Q9P032: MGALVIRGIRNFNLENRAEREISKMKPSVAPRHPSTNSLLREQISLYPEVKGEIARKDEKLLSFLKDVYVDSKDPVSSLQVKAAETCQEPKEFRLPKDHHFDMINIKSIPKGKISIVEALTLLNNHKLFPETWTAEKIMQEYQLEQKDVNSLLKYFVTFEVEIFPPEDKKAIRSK
UniProt Q7L592: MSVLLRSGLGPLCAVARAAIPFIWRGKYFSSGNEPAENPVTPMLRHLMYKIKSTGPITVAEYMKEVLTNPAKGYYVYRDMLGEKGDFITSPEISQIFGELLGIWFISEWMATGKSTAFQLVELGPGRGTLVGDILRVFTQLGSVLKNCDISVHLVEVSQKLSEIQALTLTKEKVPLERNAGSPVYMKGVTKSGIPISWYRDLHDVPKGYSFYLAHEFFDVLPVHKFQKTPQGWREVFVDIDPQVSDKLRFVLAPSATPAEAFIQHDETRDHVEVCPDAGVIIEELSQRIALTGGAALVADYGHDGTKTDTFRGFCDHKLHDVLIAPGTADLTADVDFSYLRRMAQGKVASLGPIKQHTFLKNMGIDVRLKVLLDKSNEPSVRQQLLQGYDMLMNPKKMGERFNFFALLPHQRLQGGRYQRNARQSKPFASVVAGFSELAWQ
UniProt Q9P0J0, whole entry, looked up: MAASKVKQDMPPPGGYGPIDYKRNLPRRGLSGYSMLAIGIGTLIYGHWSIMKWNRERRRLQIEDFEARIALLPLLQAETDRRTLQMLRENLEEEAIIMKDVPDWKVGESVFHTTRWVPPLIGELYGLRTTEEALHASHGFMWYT
UniProt O95139, whole entry, looked up: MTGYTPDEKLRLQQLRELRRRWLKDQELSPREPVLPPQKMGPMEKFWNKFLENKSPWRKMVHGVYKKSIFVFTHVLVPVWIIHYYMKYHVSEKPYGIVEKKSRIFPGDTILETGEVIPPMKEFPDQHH
UniProt Q6P582, whole entry, looked up: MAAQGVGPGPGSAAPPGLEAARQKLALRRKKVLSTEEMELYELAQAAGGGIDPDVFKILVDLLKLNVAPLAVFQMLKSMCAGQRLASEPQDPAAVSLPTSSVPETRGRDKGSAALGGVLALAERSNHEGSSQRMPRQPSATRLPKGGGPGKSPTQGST
UniProt P62166, whole entry, looked up: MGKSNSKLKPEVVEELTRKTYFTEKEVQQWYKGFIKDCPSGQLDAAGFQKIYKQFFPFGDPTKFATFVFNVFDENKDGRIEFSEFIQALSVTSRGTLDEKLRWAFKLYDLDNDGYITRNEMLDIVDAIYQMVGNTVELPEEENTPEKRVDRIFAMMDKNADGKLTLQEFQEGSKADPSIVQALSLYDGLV
UniProt Q8NHV4, whole entry, looked up: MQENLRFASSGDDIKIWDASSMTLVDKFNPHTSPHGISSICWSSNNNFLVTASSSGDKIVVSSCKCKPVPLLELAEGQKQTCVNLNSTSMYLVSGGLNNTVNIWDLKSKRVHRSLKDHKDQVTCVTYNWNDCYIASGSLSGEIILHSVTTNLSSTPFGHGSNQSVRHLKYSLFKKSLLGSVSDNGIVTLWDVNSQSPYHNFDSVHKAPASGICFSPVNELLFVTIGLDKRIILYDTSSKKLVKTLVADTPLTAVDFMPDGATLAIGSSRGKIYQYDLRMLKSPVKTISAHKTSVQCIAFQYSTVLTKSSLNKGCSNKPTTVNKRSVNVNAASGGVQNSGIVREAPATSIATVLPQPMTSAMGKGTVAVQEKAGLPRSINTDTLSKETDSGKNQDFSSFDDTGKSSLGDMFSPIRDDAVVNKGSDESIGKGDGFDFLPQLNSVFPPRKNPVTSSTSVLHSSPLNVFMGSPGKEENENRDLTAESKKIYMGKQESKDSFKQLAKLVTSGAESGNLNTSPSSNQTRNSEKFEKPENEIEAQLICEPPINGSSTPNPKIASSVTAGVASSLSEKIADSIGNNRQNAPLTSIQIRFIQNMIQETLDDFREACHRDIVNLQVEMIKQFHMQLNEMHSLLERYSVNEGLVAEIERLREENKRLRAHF
UniProt O43920, whole entry, looked up: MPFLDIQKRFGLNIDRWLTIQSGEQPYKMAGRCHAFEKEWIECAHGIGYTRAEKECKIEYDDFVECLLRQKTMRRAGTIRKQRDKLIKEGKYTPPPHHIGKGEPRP
UniProt Q9BT67: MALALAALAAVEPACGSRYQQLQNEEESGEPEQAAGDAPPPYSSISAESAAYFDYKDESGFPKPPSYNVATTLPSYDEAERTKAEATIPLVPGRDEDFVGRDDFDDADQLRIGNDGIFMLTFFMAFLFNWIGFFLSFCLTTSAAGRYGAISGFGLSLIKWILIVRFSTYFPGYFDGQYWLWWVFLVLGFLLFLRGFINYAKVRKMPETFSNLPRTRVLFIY
UniProt O00483, whole entry, looked up: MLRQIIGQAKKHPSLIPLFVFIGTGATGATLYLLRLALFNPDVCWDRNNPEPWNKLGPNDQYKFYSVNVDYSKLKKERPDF
UniProt O75438, whole entry, looked up: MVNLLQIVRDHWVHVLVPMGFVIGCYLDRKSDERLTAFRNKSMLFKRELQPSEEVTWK
UniProt Q96PU5: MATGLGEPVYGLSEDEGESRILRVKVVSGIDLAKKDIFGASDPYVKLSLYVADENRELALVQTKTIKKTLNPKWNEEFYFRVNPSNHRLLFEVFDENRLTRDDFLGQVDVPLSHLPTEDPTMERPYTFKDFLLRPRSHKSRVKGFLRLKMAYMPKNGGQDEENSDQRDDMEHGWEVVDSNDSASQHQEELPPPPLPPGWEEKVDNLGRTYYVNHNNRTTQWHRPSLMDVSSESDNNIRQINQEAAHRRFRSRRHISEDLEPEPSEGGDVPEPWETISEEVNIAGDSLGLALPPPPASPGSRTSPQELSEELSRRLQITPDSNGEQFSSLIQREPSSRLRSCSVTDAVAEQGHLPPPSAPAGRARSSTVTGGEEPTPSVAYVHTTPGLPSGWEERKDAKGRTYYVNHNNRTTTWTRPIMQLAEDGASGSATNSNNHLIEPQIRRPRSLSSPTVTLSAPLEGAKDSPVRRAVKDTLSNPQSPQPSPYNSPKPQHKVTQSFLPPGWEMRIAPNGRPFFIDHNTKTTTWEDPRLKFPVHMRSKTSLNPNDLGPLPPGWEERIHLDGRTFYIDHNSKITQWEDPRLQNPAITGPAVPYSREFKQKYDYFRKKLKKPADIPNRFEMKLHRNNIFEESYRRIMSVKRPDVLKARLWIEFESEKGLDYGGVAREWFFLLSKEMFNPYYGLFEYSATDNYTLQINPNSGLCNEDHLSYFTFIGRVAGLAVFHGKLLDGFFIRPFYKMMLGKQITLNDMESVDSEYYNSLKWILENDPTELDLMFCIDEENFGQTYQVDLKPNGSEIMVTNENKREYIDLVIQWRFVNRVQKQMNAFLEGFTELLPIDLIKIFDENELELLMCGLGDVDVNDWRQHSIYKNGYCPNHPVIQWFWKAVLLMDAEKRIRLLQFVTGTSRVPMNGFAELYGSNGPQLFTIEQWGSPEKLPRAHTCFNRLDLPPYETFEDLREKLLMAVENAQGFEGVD
UniProt Q99747: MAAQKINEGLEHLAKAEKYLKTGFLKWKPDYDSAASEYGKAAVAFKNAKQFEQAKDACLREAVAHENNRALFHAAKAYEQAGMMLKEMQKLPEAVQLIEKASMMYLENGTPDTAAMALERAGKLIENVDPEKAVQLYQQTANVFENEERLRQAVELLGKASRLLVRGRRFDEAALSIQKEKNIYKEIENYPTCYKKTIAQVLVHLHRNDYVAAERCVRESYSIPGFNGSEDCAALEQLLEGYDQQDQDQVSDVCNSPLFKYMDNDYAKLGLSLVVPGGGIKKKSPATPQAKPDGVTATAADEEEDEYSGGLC
UniProt Q14686, whole entry, looked up: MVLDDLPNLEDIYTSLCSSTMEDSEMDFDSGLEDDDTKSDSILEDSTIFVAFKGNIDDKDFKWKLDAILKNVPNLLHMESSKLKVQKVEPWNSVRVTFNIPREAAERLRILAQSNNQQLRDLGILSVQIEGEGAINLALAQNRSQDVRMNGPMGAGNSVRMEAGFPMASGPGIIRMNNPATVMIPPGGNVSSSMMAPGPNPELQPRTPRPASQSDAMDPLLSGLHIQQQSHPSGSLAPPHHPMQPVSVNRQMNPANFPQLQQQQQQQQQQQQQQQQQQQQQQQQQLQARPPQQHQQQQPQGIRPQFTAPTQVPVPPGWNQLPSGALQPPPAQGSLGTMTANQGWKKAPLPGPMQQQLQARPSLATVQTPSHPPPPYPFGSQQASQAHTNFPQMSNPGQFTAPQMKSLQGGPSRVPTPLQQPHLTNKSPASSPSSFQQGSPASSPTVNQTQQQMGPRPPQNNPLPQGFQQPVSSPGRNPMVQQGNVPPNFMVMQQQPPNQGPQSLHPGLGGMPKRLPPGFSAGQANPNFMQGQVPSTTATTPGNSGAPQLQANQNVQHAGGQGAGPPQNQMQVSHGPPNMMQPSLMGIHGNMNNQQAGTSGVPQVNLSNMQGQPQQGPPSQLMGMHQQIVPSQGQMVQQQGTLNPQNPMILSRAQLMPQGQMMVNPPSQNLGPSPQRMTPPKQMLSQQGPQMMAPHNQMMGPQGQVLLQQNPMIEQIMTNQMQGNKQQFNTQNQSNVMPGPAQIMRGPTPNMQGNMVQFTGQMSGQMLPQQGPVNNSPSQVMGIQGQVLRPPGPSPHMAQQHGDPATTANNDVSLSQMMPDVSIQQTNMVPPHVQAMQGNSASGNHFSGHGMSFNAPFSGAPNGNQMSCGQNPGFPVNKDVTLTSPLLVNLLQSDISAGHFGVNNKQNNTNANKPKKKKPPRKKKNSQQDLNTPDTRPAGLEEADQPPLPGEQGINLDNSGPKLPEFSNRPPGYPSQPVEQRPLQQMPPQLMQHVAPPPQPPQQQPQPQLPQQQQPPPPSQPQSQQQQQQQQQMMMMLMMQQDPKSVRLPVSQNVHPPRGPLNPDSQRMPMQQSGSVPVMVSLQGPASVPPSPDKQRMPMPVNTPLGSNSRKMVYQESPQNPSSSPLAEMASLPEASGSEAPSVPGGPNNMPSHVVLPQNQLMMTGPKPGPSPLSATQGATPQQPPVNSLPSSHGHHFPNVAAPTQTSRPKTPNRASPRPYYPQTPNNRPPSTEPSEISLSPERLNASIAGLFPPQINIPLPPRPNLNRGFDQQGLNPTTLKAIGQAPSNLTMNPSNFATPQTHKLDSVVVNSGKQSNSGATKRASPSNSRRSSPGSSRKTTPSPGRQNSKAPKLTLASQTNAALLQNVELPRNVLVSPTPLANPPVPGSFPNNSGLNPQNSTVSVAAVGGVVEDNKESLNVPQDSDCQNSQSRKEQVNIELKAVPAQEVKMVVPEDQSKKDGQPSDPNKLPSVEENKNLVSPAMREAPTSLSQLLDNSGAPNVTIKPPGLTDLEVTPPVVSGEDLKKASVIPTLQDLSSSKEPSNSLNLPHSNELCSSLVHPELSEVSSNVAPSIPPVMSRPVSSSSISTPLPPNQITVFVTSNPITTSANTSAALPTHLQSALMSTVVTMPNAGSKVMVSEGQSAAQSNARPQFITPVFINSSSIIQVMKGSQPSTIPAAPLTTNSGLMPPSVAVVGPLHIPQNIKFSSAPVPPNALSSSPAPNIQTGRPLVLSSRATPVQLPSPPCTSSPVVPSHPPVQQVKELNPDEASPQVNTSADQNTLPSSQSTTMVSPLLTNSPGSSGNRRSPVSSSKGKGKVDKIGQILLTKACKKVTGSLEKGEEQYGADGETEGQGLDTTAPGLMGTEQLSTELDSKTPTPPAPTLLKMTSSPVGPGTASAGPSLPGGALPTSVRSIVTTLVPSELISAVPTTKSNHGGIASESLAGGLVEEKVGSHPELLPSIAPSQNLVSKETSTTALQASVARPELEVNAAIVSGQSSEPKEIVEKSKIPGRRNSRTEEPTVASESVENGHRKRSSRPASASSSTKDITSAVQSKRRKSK
UniProt Q9BRA0: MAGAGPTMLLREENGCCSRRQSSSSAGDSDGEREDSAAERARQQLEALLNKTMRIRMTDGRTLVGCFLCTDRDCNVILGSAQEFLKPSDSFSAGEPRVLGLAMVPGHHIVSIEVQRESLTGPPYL

Columns and labels:
Test in all cases: log2 fold change, soluble protein after heating vs DMSO (PISA); higher = thermal stabilisation; K562 cells, 10 uM, 30 min; active = over 0.2 and 3.5 SD of the protein, either way, in both replicates (recomputed)
[1] = compound: CS(=O)(=O)c1ccc(-c2cnc(N)c(C(=O)Nc3ccccc3)n2)cc1
Procedure, shortened: (§1)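 Values are thermal stability changes relative to control samples and are taken from duplicates. They are stated as log2 fold changes. Before quantification by TMTpro 16plex LC-MS/MS with equalised channel sums, K562 cells at 2×10^6 cells/mL were treated with 10 μM compound for 30 min, heated in aliquots for 3 min across 48°C-58°C, pooled, extracted in PBS with 0.5% NP-40 at 4°C, and centrifuged at 21,000xg for 90 min to give the soluble supernatant.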

crizotinib = compound: C[C@@H](Oc1cc(-c2cnn(C3CCNCC3)c2)cnc1N)c1c(Cl)ccc(F)c1Cl [crizotinib]
Procedure, shortened: as §1

[2] = compound: C[C@@H]1COCCN1C2=NC(=NC(=C2)C3(CC3)S(=O)(=O)C)C4=C5C=CNC5=CC=C4
Procedure, shortened: as §1

[3] = compound: C[C@H](C1=CC=C(C=C1)C(=O)NC2=C3C=CNC3=NC=C2)N
Procedure, shortened: as §1

duvelisib = compound: C[C@H](Nc1ncnc2nc[nH]c12)c1cc2cccc(Cl)c2c(=O)n1-c1ccccc1 [duvelisib]
Procedure, shortened: as §1

gandotinib = compound: Cc1cc(Nc2cc(CN3CCOCC3)c3nc(C)c(Cc4ccc(Cl)cc4F)n3n2)n[nH]1 [gandotinib]
Procedure, shortened: as §1

tozasertib = compound: Cc1cc(Nc2cc(N3CCN(C)CC3)nc(Sc3ccc(NC(=O)C4CC4)cc3)n2)n[nH]1 [tozasertib]
Procedure, shortened: as §1

[4] = compound: Cc1cc(SCc2sc(-c3ccc(C(F)(F)F)cc3)nc2C)ccc1OCC(=O)O
Procedure, shortened: as §1

doramapimod = compound: Cc1ccc(-n2nc(C(C)(C)C)cc2NC(=O)Nc2ccc(OCCN3CCOCC3)c3ccccc23)cc1 [doramapimod]
Procedure, shortened: as §1

ispinesib = compound: Cc1ccc(C(=O)N(CCCN)[C@@H](c2nc3cc(Cl)ccc3c(=O)n2Cc2ccccc2)C(C)C)cc1 [ispinesib]
Procedure, shortened: as §1

Measured: log2 fold change

NDC1 (UniProt Q9BTX1)
inactive: [1] 0.03 | crizotinib 0.046 | [2] 0.058 | [3] -0.081 | duvelisib -0.001 | gandotinib 0.076 | tozasertib 0.026 | [4] 0 | doramapimod -0.01 | ispinesib -0.034

NDUFAF4 (UniProt Q9P032)
inactive: [1] -0.005 | crizotinib -0.14 | [2] 0.06 | [3] -0.05 | duvelisib 0.048 | gandotinib -0.041 | tozasertib -0.005 | [4] 0.005 | doramapimod -0.032 | ispinesib -0.161

NDUFS8 (UniProt O00217)
inactive: [1] 0.021 | crizotinib -0.182 | [2] 0.143 | [3] -0.027 | gandotinib -0.168 | [4] 0.021 | doramapimod -0.043 | ispinesib -0.158

NDUFA8 (UniProt P51970)
inactive: [1] 0.026 | crizotinib 0.042 | [2] 0.012 | [3] -0.022 | duvelisib 0.081 | gandotinib -0.071 | tozasertib 0.016 | [4] 0.012 | doramapimod -0.029 | ispinesib -0.024

NDUFAF7 (UniProt Q7L592)
inactive: [1] 0.011 | crizotinib -0.156 | [2] 0.033 | [3] -0.007 | gandotinib -0.231 | tozasertib -0.107 | doramapimod -0.046 | ispinesib -0.038

NEBL (UniProt O76041)
inactive: [1] 0.123 | crizotinib -0.016 | [2] -0.013 | [3] 0.04 | duvelisib -0.001 | tozasertib -0.1 | [4] -0.074 | doramapimod -0.001 | ispinesib -0.077

2 successive entries out of the list so far, for reference:
NDUFAF7 (UniProt Q7L592)
inactive: [1] 0.011 | crizotinib -0.156 | [2] 0.033 | [3] -0.007 | gandotinib -0.231 | tozasertib -0.107 | doramapimod -0.046 | ispinesib -0.038

NEBL (UniProt O76041)
inactive: [1] 0.123 | crizotinib -0.016 | [2] -0.013 | [3] 0.04 | duvelisib -0.001 | tozasertib -0.1 | [4] -0.074 | doramapimod -0.001 | ispinesib -0.077

Further results:

NDUFA13 (UniProt Q9P0J0)
inactive: [1] 0 | crizotinib 0.027 | [2] 0.085 | [3] -0.162 | duvelisib 0.042 | gandotinib -0.048 | tozasertib 0.018 | [4] 0.016 | doramapimod 0.049 | ispinesib -0.04

NCOR2 (UniProt C9J0Q5)
inactive: [1] 0.017 | crizotinib 0.01 | [2] -0.01 | [3] 0.066 | duvelisib 0 | gandotinib -0.102 | tozasertib -0.042 | [4] 0.015 | doramapimod 0.056 | ispinesib 0.111

NDUFB6 (UniProt O95139)
inactive: [1] 0.021 | crizotinib 0.024 | [2] -0.056 | [3] -0.094 | duvelisib 0.026 | gandotinib 0.035 | tozasertib -0.003 | [4] -0.1 | doramapimod -0.033 | ispinesib -0.054

MZT2A (UniProt Q6P582)
inactive: [1] -0.084 | crizotinib 0.039 | [2] 0.057 | [3] -0.058 | duvelisib 0.111 | gandotinib -0.316 | tozasertib -0.014 | [4] -0.008 | doramapimod -0.005 | ispinesib -0.032

NCS1 (UniProt P62166)
inactive: [1] 0.012 | crizotinib -0.017 | [2] 0.019 | [3] -0.004 | duvelisib 0.047 | gandotinib 0.023 | tozasertib 0.029 | [4] 0.056 | doramapimod 0.01 | ispinesib -0.246

NEDD1 isoform 3 (UniProt Q8NHV4)
inactive: [1] 0 | crizotinib 0.016 | [2] -0.006 | [3] -0.027 | duvelisib 0.041 | gandotinib -0.049 | tozasertib -0.027 | [4] -0.024 | doramapimod 0.001 | ispinesib 0.019

NDUFS5 (UniProt O43920)
inactive: [1] 0.022 | crizotinib -0.008 | [2] 0.01 | [3] 0.034 | duvelisib 0.051 | gandotinib -0.007 | tozasertib 0 | [4] -0.006 | doramapimod 0.011 | ispinesib -0.124

NDUFB8 (UniProt O95169)
inactive: [1] 0.035 | crizotinib 0.09 | [2] -0.015 | [3] -0.001 | gandotinib 0.045 | [4] 0.078 | doramapimod -0.057 | ispinesib 0.123

NA, A0A096LPI6
inactive: [1] -0.014 | crizotinib 0.079 | [2] 0.03 | [3] -0.015 | gandotinib 0.04 | [4] -0.051 | doramapimod -0.038 | ispinesib 0.047

NACC1 (UniProt Q96RE7)
inactive: [1] 0 | crizotinib 0.005 | [2] 0.082 | [3] -0.03 | gandotinib -0.129 | [4] 0.152 | doramapimod -0.064 | ispinesib -0.019

NCL (UniProt P19338)
inactive: [1] -0.136 | crizotinib 0.12 | [2] -0.59 | [3] 0.428 | gandotinib 0.315 | [4] 0.075 | doramapimod 0.254 | ispinesib -0.19

NCK1 (UniProt P16333)
inactive: [1] -0.077 | crizotinib -0.449 | [2] 0.171 | [3] 0.162 | [4] 0.076 | doramapimod -0.008 | ispinesib -0.173

NDFIP1 (UniProt Q9BT67)
inactive: [1] 0.349 | crizotinib -0.004 | [2] 0.045 | [3] -0.167 | gandotinib 0.052 | [4] 0.08 | doramapimod -0.068 | ispinesib 0.015

NDUFA4 (UniProt O00483)
inactive: [1] -0.045 | crizotinib 0.138 | [2] 0.162 | [3] -0.055 | gandotinib -0.099 | [4] 0.022 | doramapimod 0.034 | ispinesib 0.204

NA, A0A0B4J2A0
inactive: [1] -0.087 | crizotinib -0.18 | [2] 0.093 | [3] 0.06 | gandotinib -0.087 | [4] 0.061 | doramapimod -0.049 | ispinesib -0.121

NDUFB10 (UniProt O96000)
inactive: [1] 0.024 | crizotinib -0.025 | [2] 0.012 | [3] 0.027 | gandotinib -0.029 | [4] 0.024 | doramapimod 0.003 | ispinesib -0.073

NDUFB1 (UniProt O75438)
inactive: [1] 0.06 | crizotinib 0.019 | [2] 0.105 | [3] 0.044 | gandotinib -0.27 | doramapimod -0.044

NBN (UniProt O60934)
inactive: [1] 0.02 | crizotinib 0.009 | [2] 0.038 | [3] -0.063 | gandotinib -0.069 | [4] 0.116 | doramapimod -0.004 | ispinesib 0.008

NEDD4L (UniProt Q96PU5)
inactive: [1] 0.015 | crizotinib -0.005 | [2] -0.071 | [3] -0.105 | gandotinib 0.015 | [4] 0.083 | doramapimod 0.026 | ispinesib -0.037

NDUFA9 (UniProt Q16795)
inactive: [1] 0.007 | crizotinib -0.139 | [2] 0.079 | [3] 0.022 | gandotinib -0.115 | [4] 0.052 | doramapimod -0.031 | ispinesib -0.122

NAPG (UniProt Q99747)
inactive: [1] 0.045 | crizotinib -0.029 | [2] 0.045 | [3] -0.098 | gandotinib -0.046 | [4] 0.143 | doramapimod -0.05 | ispinesib 0.025

NCAPD2 (UniProt Q15021)
inactive: [1] 0.018 | crizotinib -0.024 | [2] 0.004 | [3] 0.093 | gandotinib -0.077 | [4] 0.109 | doramapimod -0.049 | ispinesib -0.029

NCOA6 (UniProt Q14686)
inactive: [1] 0.109 | crizotinib -0.039 | [2] 0.138 | gandotinib 0.006 | tozasertib 0.058 | doramapimod 0.175 | ispinesib -0.195

NDUFAF6 (UniProt Q330K2)
inactive: [1] -0.052 | crizotinib -0.197 | [2] 0.182 | [3] -0.025 | gandotinib -0.167 | [4] 0.027 | doramapimod -0.065 | ispinesib -0.273

NAA38 isoform 2 (UniProt Q9BRA0)
inactive: [1] 0.012 | crizotinib -0.052 | [2] 0.099 | [3] 0.018 | gandotinib -0.004 | [4] 0.015 | doramapimod -0.02 | ispinesib -0.064

NAT14 (UniProt Q8WUY8)
inactive: [1] 0.006 | crizotinib -0.228 | [2] -0.019 | [3] -0.119 | [4] 0 | doramapimod -0.02
active: ispinesib -0.418
